Assay results as given in patent US6548042B2, “Bis-phosphonate compounds” (priority 2000, dated 2003).
Some of these results come from one statement about several compounds together. At least one compound was matched to its structure with a doubt left.

Assay: Biodistribution of i.v. administered radioiodinated compounds in balb/c mice;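 further: healthy mice given radioiodinated bisphosphonic acids, with randomly chosen groups of three animals per time point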
Conditions: 24 h postinjection

SMILES | Uptake in the thyroid
O=P(O)(O)C(CCc1cccc([131I])c1)P(=O)(O)O [72a, 3-(m-iodo-[^131I and ^125I]-phenyl)propylidene-1,1-bisphosphonic acid] | ≤ 0.06±0.04 % of the injected dose
O=P(O)(O)C(Cc1cccc([125I])c1)P(=O)(O)O [34a, m-[^125I and ^131I]-iodophenylethylidene-1,1-bisphosphonic Acid] | ≤ 0.06±0.04 % of the injected dose
O=P(O)(O)C(NCCc1cccc([131I])c1)P(=O)(O)O [67a, N-(m-[^131I]-iodophenylethyl)aminomethylene-bisphosphonic acid] | ≤ 0.06±0.04 % of the injected dose
